One substance from PMC2820081 can be followed below.

By UniProt entry, the sequences of proteins in these tests, tags left out.
UniProt Q96CV9: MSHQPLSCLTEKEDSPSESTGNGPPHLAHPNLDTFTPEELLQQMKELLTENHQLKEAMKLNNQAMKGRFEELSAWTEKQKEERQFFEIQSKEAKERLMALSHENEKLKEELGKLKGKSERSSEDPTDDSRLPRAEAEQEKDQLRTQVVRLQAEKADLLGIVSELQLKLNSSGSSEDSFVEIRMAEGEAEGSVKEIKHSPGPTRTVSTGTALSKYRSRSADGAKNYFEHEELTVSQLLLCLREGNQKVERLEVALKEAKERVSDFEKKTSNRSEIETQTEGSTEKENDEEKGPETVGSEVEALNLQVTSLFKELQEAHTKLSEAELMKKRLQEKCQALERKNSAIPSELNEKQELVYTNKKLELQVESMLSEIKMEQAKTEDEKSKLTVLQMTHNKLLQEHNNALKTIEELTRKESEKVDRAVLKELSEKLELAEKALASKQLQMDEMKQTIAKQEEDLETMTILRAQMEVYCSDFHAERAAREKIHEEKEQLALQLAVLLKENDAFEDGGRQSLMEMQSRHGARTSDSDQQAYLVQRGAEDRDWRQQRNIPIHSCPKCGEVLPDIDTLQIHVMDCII
UniProt Q9UM54: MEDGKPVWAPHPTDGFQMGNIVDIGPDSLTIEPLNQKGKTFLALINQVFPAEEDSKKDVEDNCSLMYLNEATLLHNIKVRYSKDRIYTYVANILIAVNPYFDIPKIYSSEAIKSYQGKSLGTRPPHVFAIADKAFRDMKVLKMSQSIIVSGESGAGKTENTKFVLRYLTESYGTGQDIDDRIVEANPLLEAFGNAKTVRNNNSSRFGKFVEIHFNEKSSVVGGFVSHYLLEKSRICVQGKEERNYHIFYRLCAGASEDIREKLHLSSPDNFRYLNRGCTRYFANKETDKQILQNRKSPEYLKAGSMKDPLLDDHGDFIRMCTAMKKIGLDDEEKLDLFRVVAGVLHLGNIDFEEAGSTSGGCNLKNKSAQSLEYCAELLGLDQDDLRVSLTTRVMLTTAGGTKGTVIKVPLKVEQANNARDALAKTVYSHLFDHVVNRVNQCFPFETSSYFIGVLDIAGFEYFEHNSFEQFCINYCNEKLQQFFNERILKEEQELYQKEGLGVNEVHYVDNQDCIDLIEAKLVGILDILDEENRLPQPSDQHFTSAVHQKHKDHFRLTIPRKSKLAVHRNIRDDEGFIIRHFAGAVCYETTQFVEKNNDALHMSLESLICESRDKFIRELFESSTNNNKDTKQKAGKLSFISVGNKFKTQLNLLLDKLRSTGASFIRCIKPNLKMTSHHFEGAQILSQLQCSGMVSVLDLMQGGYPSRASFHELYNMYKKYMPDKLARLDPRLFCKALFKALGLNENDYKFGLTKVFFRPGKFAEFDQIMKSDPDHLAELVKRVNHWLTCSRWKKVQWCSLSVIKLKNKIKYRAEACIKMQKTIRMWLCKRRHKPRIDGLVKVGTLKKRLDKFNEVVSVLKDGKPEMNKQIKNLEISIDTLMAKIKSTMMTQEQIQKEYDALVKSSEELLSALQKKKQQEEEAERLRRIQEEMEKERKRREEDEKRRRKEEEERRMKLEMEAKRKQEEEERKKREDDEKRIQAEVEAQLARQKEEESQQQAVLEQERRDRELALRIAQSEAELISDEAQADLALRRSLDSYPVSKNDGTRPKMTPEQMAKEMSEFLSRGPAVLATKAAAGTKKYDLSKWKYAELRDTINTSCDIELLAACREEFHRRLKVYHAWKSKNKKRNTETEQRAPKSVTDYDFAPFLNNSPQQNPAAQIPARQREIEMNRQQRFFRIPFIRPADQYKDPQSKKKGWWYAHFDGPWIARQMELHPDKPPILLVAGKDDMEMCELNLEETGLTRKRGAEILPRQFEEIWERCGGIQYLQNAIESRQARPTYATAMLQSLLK

For assay [1], the target named is FLAG-optineurin fusion protein (UniProt Q96CV9). Description: native gel or EMSA; as a3 but in RPE cells; data not shown. A general note: In EMSA bound probe runs differently from free probe, usually more slowly.
For assay [2] the target is unchanged. Description: native gel or EMSA; RGC5 cells co-transfected with pTarget-FLAG-OPTN and pRab8Q67L-EGFP, pMyoVI-EGFP and/or pTfR-EGFP in various combinations; 20 ug lysate on native blue gel; Western blot with anti-FLAG.

These are yes or no findings as the source states them, for the method shown. Some results given as binding are weak or reduced against the parent protein; the word gives no strength.

For the substance “Human myosin VI full length fused to EGFP (from UniProt Q9UM54 1-1294)”, the binding entry in assay [1] and in assay [2] was “binds” throughout.
